In this test the target is T1, mesoheme–rabbit hemopexin (1:1 heme–HPX complex) (rabbit) (UniProt P20058).
T1 sequence: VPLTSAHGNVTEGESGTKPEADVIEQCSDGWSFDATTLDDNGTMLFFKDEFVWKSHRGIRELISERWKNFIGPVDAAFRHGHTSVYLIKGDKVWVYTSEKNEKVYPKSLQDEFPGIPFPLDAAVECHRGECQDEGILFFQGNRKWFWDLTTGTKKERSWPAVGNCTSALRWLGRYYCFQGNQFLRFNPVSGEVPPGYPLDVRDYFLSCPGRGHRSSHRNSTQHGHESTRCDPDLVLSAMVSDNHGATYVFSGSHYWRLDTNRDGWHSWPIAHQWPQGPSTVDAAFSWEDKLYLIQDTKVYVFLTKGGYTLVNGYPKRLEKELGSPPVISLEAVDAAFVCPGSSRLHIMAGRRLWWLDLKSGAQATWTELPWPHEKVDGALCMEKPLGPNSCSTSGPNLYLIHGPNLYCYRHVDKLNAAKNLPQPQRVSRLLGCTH
Kind of test: affinity purification with mass spectrometry; proto-heme–human HPX, mesoheme–rabbit HPX or holo-human Tf Affi-Gel 15; detergent extracts of primary human hepatocytes; proteins found on underivatized, mouse IgG or ovalbumin resins filtered out; only the target purified.

Chains of the proteins cited; added tags and fusions are not shown. Residues count along the entry.
UniProt P51884, residues 19-338: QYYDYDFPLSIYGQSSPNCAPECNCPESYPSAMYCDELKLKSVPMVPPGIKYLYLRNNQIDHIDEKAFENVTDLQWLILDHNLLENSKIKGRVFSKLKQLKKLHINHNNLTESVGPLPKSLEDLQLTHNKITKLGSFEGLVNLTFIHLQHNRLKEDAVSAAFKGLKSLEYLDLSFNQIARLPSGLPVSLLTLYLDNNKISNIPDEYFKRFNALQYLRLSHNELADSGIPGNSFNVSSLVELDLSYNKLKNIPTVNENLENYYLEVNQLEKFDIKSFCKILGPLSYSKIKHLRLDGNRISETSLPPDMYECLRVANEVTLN
UniProt P40189, residues 23-918: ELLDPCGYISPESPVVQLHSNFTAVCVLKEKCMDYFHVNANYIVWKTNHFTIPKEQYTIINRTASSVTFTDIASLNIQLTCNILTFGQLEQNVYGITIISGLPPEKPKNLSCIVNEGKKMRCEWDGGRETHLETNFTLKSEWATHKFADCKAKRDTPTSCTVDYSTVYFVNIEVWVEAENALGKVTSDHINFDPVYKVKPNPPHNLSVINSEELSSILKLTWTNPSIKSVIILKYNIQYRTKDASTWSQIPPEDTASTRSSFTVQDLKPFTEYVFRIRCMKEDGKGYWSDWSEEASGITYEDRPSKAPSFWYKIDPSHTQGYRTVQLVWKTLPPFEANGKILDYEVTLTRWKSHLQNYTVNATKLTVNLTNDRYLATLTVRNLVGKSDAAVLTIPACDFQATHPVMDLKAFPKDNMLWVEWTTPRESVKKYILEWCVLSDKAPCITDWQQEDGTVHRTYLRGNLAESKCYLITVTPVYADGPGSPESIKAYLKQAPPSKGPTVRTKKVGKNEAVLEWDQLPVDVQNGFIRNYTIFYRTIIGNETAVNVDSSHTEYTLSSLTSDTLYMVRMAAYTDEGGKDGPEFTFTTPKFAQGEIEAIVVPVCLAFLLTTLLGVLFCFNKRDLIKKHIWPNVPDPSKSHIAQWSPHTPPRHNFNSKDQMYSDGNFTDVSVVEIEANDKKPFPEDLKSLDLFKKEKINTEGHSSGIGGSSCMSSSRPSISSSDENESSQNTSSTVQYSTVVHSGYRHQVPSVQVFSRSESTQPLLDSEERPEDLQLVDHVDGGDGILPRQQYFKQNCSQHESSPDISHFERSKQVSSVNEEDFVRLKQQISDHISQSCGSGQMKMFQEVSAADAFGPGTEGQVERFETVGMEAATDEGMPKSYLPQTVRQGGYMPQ
UniProt P04114, residues 28-4563: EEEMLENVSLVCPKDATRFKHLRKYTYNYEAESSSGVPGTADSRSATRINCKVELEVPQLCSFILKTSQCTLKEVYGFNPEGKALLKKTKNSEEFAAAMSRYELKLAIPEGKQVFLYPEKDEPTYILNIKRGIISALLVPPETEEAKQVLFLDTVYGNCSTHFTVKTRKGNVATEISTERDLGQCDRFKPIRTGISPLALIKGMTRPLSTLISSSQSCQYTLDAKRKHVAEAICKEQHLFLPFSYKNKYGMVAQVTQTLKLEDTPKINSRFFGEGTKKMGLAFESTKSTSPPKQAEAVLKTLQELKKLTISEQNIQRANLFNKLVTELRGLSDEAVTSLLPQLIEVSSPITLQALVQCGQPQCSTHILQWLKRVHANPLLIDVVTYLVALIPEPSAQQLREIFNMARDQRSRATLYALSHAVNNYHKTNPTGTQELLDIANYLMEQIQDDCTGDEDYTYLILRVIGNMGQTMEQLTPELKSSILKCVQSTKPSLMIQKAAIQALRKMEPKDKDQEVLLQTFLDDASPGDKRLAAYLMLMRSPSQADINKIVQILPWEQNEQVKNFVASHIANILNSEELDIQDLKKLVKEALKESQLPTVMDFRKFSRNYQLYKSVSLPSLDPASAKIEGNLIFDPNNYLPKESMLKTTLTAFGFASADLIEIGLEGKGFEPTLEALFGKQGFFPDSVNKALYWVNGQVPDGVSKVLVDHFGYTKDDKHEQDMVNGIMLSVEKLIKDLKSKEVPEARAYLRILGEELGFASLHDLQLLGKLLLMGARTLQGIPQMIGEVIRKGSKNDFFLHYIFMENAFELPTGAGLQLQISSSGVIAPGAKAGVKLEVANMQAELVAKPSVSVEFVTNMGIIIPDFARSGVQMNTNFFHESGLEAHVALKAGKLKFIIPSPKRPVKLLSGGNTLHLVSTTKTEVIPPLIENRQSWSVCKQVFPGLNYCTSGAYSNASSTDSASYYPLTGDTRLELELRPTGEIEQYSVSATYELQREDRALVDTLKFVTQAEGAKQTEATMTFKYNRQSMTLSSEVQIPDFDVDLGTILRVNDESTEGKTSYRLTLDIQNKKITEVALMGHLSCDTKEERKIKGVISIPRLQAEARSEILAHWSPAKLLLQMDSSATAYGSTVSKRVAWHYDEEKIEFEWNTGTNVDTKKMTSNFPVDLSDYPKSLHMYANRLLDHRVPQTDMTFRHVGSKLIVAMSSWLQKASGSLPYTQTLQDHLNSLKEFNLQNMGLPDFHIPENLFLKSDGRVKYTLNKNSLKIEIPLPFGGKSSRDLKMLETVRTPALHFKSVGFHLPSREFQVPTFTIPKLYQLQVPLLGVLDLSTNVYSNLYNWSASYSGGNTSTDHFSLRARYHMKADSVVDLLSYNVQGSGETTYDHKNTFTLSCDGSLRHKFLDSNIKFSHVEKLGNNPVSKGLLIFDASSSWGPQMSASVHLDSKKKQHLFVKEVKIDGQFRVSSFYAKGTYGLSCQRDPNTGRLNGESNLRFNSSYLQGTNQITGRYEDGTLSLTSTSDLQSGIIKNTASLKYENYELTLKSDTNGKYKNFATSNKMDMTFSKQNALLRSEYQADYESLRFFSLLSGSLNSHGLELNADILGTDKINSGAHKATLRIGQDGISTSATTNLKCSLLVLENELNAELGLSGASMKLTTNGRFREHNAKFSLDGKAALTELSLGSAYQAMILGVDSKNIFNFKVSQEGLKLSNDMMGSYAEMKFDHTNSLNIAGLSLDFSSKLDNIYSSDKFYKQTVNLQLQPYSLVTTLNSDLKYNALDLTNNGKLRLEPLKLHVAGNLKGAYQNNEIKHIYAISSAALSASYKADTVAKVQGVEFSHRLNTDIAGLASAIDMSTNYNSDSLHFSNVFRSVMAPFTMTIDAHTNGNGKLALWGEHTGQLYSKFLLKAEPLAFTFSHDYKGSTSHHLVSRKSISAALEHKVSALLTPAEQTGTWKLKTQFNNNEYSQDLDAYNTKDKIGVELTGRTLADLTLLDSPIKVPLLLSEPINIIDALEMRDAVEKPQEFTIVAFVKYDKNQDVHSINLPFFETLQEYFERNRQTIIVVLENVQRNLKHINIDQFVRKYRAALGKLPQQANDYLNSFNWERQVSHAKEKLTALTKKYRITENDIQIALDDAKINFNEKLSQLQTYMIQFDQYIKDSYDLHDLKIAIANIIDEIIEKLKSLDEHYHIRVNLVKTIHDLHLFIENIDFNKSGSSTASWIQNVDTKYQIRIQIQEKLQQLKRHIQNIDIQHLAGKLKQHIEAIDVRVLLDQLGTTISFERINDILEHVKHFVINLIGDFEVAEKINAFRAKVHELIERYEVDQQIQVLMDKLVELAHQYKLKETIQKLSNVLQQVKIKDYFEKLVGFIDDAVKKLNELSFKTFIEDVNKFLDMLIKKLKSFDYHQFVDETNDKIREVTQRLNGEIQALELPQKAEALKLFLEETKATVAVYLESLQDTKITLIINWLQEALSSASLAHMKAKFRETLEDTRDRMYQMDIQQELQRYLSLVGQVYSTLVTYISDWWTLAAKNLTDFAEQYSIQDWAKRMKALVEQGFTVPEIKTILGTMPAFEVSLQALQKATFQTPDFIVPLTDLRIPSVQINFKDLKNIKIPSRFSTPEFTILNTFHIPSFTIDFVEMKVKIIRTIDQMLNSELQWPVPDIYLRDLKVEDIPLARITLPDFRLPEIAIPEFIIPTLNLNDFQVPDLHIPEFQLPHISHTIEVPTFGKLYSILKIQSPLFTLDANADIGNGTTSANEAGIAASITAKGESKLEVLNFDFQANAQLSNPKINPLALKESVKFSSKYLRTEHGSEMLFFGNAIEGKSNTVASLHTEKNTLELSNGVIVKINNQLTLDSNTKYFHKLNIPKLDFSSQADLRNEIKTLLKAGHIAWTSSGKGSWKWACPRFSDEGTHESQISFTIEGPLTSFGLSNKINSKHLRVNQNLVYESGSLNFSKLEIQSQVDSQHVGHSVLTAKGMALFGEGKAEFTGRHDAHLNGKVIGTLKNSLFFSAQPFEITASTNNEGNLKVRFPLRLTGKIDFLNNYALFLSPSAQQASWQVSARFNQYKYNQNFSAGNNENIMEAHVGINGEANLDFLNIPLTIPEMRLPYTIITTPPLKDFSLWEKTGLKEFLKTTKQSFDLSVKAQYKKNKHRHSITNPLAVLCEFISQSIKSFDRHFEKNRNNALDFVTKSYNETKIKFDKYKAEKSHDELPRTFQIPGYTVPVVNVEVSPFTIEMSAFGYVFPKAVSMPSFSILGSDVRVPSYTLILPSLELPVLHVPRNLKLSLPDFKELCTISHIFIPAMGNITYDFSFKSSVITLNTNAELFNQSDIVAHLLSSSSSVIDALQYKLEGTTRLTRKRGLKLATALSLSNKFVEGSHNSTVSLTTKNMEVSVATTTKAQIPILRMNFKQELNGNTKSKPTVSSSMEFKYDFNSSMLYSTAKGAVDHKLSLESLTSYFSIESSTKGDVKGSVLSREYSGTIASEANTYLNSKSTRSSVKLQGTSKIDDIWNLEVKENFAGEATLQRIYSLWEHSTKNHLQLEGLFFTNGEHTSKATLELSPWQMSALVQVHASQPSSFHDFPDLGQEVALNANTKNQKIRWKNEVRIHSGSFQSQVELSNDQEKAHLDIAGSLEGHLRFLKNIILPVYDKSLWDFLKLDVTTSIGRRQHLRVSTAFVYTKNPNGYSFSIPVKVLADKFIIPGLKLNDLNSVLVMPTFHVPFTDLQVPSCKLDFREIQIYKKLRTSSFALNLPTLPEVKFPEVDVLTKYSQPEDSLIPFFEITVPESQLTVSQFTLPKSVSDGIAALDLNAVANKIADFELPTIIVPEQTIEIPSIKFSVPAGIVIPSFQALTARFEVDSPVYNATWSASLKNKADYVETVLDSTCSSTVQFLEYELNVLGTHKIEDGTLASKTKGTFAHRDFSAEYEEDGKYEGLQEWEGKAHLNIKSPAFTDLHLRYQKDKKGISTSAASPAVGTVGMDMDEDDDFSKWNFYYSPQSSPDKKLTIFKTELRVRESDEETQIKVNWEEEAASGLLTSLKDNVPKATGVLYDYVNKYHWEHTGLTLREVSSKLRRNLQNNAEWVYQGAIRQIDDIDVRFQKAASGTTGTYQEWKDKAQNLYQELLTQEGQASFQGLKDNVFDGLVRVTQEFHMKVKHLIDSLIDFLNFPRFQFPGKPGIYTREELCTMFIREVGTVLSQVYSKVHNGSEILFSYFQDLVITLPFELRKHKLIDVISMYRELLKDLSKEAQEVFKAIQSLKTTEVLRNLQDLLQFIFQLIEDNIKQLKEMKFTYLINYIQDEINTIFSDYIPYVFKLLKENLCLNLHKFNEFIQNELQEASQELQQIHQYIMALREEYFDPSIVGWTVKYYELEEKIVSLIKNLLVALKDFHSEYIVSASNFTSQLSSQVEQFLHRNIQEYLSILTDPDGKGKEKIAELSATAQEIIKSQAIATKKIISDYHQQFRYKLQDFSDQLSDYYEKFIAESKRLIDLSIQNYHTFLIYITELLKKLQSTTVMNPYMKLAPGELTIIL
UniProt O75636, residues 24-299: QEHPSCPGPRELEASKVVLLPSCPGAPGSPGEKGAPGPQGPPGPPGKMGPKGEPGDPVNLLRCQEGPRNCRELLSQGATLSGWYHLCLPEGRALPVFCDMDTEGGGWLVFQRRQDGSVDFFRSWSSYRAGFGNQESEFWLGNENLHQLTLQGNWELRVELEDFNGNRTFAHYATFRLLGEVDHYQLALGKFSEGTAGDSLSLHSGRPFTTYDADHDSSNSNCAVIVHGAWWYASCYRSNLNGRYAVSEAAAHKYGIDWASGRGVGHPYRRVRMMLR
UniProt P01009, residues 25-418: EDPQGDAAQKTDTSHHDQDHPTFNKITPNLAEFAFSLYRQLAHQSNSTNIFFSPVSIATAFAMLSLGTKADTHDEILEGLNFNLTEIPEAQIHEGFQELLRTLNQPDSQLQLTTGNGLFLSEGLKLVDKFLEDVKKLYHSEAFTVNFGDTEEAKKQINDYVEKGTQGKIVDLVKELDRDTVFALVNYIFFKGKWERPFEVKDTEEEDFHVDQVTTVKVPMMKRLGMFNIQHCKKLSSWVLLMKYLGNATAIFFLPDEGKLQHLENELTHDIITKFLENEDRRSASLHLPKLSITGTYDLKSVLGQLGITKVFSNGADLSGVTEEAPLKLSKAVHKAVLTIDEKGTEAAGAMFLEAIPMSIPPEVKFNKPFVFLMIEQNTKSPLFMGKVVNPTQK

Results are given in words; binding and its absence hold for the method and conditions named. In cells and extracts the contact can be indirect. Here binding means that the protein was enriched with, or labelled near, the bait; the list need not be complete. Where a sequence is shown, tags or fusion partners need not be part of it.

Drawing on article PMC12690290, this text covers binding for 23 molecules.

With “Complement C1q C chain (from UniProt P02747 29-245)”, the binding result is listed as “binds”.
In the case of Lumican (from UniProt P51884 19-338) it was “binds”; in that of “Surfactant protein B (from UniProt P07988)”, “binds”.
Turning to “Coagulation factor XI (from UniProt P03951 19-625) (enzyme)”, the binding entry was “binds”.
In the case of “Angiotensinogen (from UniProt P01019 25-476)” it was “binds”; in that of “Coagulation factor XII (from UniProt P00748 20-615) (enzyme)”, “binds”; in that of “Interleukin 6 cytokine family signal transducer (from UniProt P40189 23-918) (receptor)”, “binds”.
In the case of “Phospholipid transfer protein (from UniProt P55058 18-493)”, the binding result was “binds”.
The same measure for “Multiple Epidermal Growth Factor-like Domains Protein 10 (from UniProt Q96KG7 26-1140) (receptor)”: “binds”; for “Haptoglobin (from UniProt P00738 19-406)”: “binds”.
In the case of “Apolipoprotein B (from UniProt P04114 28-4563)” it was “binds”; in that of “Carbonic anhydrase 1 (from UniProt P00915 1-261) (enzyme)”, “binds”; in that of Ficolin 3 (from UniProt O75636 24-299), “binds”.
As to “Complement C1q subcomponent subunit B (from UniProt P02746 28-253)”, the binding entry is reported as “binds”.
The same measure for “Alpha-1 antitrypsin (from UniProt P01009 25-418)”: “binds”.

B1: Haptoglobin related protein (protein, UniProt P00739 1-348)
chain: MSDLGAVISLLLWGRQLFALYSGNDVTDISDDRFPKPPEIANGYVEHLFRYQCKNYYRLRTEGDGVYTLNDKKQWINKAVGDKLPECEAVCGKPKNPANPVQRILGGHLDAKGSFPWQAKMVSHHNLTTGATLINEQWLLTTAKNLFLNHSENATAKDIAPTLTLYVGKKQLVEIEKVVLHPNYHQVDIGLIKLKQKVLVNERVMPICLPSKNYAEVGRVGYVSGWGQSDNFKLTDHLKYVMLPVADQYDCITHYEGSTCPKWKAPKSPVGVQPILNEHTFCVGMSKYQEDTCYGDAGSAFAVHDLEEDTWYAAGILSFDKSCAVAEYGVYVKVTSIQHWVQKTIAEN
For the molecule B1, the binding entry is listed as “binds”.

B2: Prolyl carboxypeptidase (enzyme, UniProt P42785 46-496)
chain: KNYSVLYFQQKVDHFGFNTVKTFNQRYLVADKYWKKNGGSILFYTGNEGDIIWFCNNTGFMWDVAEELKAMLVFAEHRYYGESLPFGDNSFKDSRHLNFLTSEQALADFAELIKHLKRTIPGAENQPVIAIGGSYGGMLAAWFRMKYPHMVVGALAASAPIWQFEDLVPCGVFMKIVTTDFRKSGPHCSESIHRSWDAINRLSNTGSGLQWLTGALHLCSPLTSQDIQHLKDWISETWVNLAMVDYPYASNFLQPLPAWPIKVVCQYLKNPNVSDSLLLQNIFQALNVYYNYSGQVKCLNISETATSSLGTLGWSYQACTEVVMPFCTNGVDDMFEPHSWNLKELSDDCFQQWGVRPRPSWITTMYGGKNISSHTNIVFSNGELDPWSGGGVTKDITDTLVAVTISEGAHHLDLRTKNALDPMSVLLARSLEVRHMKNWIRDFYDSAGKQH
Consider B2, for which the binding result is “binds”.

B3: Histidine-rich glycoprotein (protein, UniProt P04196 19-525)
chain: VSPTDCSAVEPEAEKALDLINKRRRDGYLFQLLRIADAHLDRVENTTVYYLVLDVQESDCSVLSRKYWNDCEPPDSRRPSEIVIGQCKVIATRHSHESQDLRVIDFNCTTSSVSSALANTKDSPVLIDFFEDTERYRKQANKALEKYKEENDDFASFRVDRIERVARVRGGEGTGYFVDFSVRNCPRHHFPRHPNVFGFCRADLFYDVEALDLESPKNLVINCEVFDPQEHENINGVPPHLGHPFHWGGHERSSTTKPPFKPHGSRDHHHPHKPHEHGPPPPPDERDHSHGPPLPQGPPPLLPMSCSSCQHATFGTNGAQRHSHNNNSSDLHPHKHHSHEQHPHGHHPHAHHPHEHDTHRQHPHGHHPHGHHPHGHHPHGHHPHGHHPHCHDFQDYGPCDPPPHNQGHCCHGHGPPPGHLRRRGPGKGPRPFHCRQIGSVYRLPPLRKGEVLPLPEANFPSFPLPHHKHPLKPDNQPFPQSVSESCPGKFKSGFPQVSMFFTHTFPK
Turning to B3, the binding entry was “binds”.

B4: Ceruloplasmin (enzyme, UniProt P00450 20-1065)
chain: KEKHYYIGIIETTWDYASDHGEKKLISVDTEHSNIYLQNGPDRIGRLYKKALYLQYTDETFRTTIEKPVWLGFLGPIIKAETGDKVYVHLKNLASRPYTFHSHGITYYKEHEGAIYPDNTTDFQRADDKVYPGEQYTYMLLATEEQSPGEGDGNCVTRIYHSHIDAPKDIASGLIGPLIICKKDSLDKEKEKHIDREFVVMFSVVDENFSWYLEDNIKTYCSEPEKVDKDNEDFQESNRMYSVNGYTFGSLPGLSMCAEDRVKWYLFGMGNEVDVHAAFFHGQALTNKNYRIDTINLFPATLFDAYMVAQNPGEWMLSCQNLNHLKAGLQAFFQVQECNKSSSKDNIRGKHVRHYYIAAEEIIWNYAPSGIDIFTKENLTAPGSDSAVFFEQGTTRIGGSYKKLVYREYTDASFTNRKERGPEEEHLGILGPVIWAEVGDTIRVTFHNKGAYPLSIEPIGVRFNKNNEGTYYSPNYNPQSRSVPPSASHVAPTETFTYEWTVPKEVGPTNADPVCLAKMYYSAVEPTKDIFTGLIGPMKICKKGSLHANGRQKDVDKEFYLFPTVFDENESLLLEDNIRMFTTAPDQVDKEDEDFQESNKMHSMNGFMYGNQPGLTMCKGDSVVWYLFSAGNEADVHGIYFSGNTYLWRGERRDTANLFPQTSLTLHMWPDTEGTFNVECLTTDHYTGGMKQKYTVNQCRRQSEDSTFYLGERTYYIAAVEVEWDYSPQREWEKELHHLQEQNVSNAFLDKGEFYIGSKYKKVVYRQYTDSTFRVPVERKAEEEHLGILGPQLHADVGDKVKIIFKNMATRPYSIHAHGVQTESSTVTPTLPGETLTYVWKIPERSGAGTEDSACIPWAYYSTVDQVKDLYSGLIGPLIVCRRPYLKVFNPRRKLEFALLFLVFDENESWYLDDNIKTYSDHPEKVNKDDEEFIESNKMHAINGRMFGNLQGLTMHVGDEVNWYLMGMGNEIDLHTVHFHGHSFQYKHRGVYSSDVFDIFPGTYQTLEMFPRTPGIWLLHCHVTDHIHAGMETTYTVLQNEDTKSG
For the molecule B4, the binding entry was “binds”.

B5: Sex hormone- binding globulin (protein, UniProt P04278 30-402)
chain: LRPVLPTQSAHDPPAVHLSNGPGQEPIAVMTFDLTKITKTSSSFEVRTWDPEGVIFYGDTNPKDDWFMLGLRDGRPEIQLHNHWAQLTVGAGPRLDDGRWHQVEVKMEGDSVLLEVDGEEVLRLRQVSGPLTSKRHPIMRIALGGLLFPASNLRLPLVPALDGCLRRDSWLDKQAEISASAPTSLRSCDVESNPGIFLPPGTQAEFNLRDIPQPHAEPWAFSLDLGLKQAAGSGHLLALGTPENPSWLSLHLQDQKVVLSSGSGPGLDLPLVLGLPLQLKLSMSRVVLSQGSKMKALALPPLGLAPLLNLWAKPQGRLFLGALPGEDSSTSFCLNGLWAQGQRLDVDQALNRSHEIWTHSCPQSPGNGTDASH
For the molecule B5, the binding result is given as “binds”.

B6: Hexose-6-phosphate Dehydrogenase (enzyme, UniProt O95479 20-791)
chain: QELQGHVSIILLGATGDLAKKYLWQGLFQLYLDEAGRGHSFSFHGAALTAPKQGQELMAKALESLSCPKDMAPSHCAEHKDQFLQLSQYRQLKTAEDYQALNKDIEAQLQHAGLREAGRIFYFSVPPFAYEDIARNINSSCRPGPGAWLRVVLEKPFGHDHFSAQQLATELGTFFQEEEMYRVDHYLGKQAVAQILPFRDQNRKALDGLWNRHHVERVEIIMKETVDAEGRTSFYEEYGVIRDVLQNHLTEVLTLVAMELPHNVSSAEAVLRHKLQVFQALRGLQRGSAVVGQYQSYSEQVRRELQKPDSFHSLTPTFAAVLVHIDNLRWEGVPFILMSGKALDERVGYARILFKNQACCVQSEKHWAAAQSQCLPRQLVFHIGHGDLGSPAVLVSRNLFRPSLPSSWKEMEGPPGLRLFGSPLSDYYAYSPVRERDAHSVLLSHIFHGRKNFFITTENLLASWNFWTPLLESLAHKAPRLYPGGAENGRLLDFEFSSGRLFFSQQQPEQLVPGPGPAPMPSDFQVLRAKYRESPLVSAWSEELISKLANDIEATAVRAVRRFGQFHLALSGGSSPVALFQQLATAHYGFPWAHTHLWLVDERCVPLSDPESNFQGLQAHLLQHVRIPYYNIHPMPVHLQQRLCAEEDQGAQIYAREISALVANSSFDLVLLGMGADGHTASLFPQSPTGLDGEQLVVLTTSPSQPHRRMSLSLPLINRAKKVAVLVMGRMKREITTLVSRVGHEPKKWPISGVLPHSGQLVWYMDYDAFLG
For the molecule B6, the binding result is on record as “binds”.

B7: Cadherin 5 (protein, UniProt P33151 48-784)
chain: DWIWNQMHIDEEKNTSLPHHVGKIKSSVSRKNAKYLLKGEYVGKVFRVDAETGDVFAIERLDRENISEYHLTAVIVDKDTGENLETPSSFTIKVHDVNDNWPVFTHRLFNASVPESSAVGTSVISVTAVDADDPTVGDHASVMYQILKGKEYFAIDNSGRIITITKSLDREKQARYEIVVEARDAQGLRGDSGTATVLVTLQDINDNFPFFTQTKYTFVVPEDTRVGTSVGSLFVEDPDEPQNRMTKYSILRGDYQDAFTIETNPAHNEGIIKPMKPLDYEYIQQYSFIVEATDPTIDLRYMSPPAGNRAQVIINITDVDEPPIFQQPFYHFQLKENQKKPLIGTVLAMDPDAARHSIGYSIRRTSDKGQFFRVTKKGDIYNEKELDREVYPWYNLTVEAKELDSTGTPTGKESIVQVHIEVLDENDNAPEFAKPYQPKVCENAVHGQLVLQISAIDKDITPRNVKFKFILNTENNFTLTDNHDNTANITVKYGQFDREHTKVHFLPVVISDNGMPSRTGTSTLTVAVCKCNEQGEFTFCEDMAAQVGVSIQAVVAILLCILTITVITLLIFLRRRLRKQARAHGKSVPEIHEQLVTYDEEGGGEMDTTSYDVSVLNSVRRGGAKPPRPALDARPSLYAQVQKPPRHAPGAHGGPGEMAAMIEVKKDEADHDGDGPPYDTLHIYGYEGSESIAESLSSLGTDSSDSDVDYDFLNDWGPRFKMLAELYGSDPREELLY
B7: the binding entry is reported as “binds”.

B8: Apolipoprotein C1 (protein, UniProt P02654 27-83)
chain: TPDVSSALDKLKEFGNTLEDKARELISRIKQSELSAKMREWFSETFQKVKEKLKIDS
On to B8, for which the binding result is given as “binds”.
